Experiment [1] deals with T1, FLAG-tagged TMED10 (TMED10-FLAG), full length (human) (UniProt P49755).
T1 sequence: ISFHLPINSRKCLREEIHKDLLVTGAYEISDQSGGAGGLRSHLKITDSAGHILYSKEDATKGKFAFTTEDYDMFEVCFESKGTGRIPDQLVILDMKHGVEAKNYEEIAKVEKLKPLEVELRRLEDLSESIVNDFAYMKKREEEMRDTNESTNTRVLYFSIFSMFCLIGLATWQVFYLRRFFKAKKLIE
The experiment is described as follows: co-IP; HEK293T cells cotransfected with the indicated constructs; cells treated with 2 mM DSP cross-linker; lysates incubated with beads conjugated with anti-FLAG antibodies; bound proteins analysed by immunoblot.

The chains behind the UniProt entries cited, without tags or fusion partners. Where a name states a change or a piece, a line headed by the entry shows the natural chain unless it says otherwise. Residues count along the entry.
UniProt P01344: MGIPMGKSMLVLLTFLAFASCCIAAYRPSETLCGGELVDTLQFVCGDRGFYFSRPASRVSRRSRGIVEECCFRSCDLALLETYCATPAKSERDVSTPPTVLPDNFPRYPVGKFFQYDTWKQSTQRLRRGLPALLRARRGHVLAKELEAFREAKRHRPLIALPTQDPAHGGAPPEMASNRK
Synthesized peptide corresponding to residues 112-140 of IGF2 (IGF2^112-140): residues 112-140 of P01344

Experiment [2] addresses T2, FLAG-tagged TMED10^1-130 (TMED10^1-130-FLAG) (human) (UniProt P49755).
T2 sequence: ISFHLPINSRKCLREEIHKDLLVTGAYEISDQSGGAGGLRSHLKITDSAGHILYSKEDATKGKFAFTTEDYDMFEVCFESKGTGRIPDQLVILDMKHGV
Described as above.

In experiment [3] the target is Synthesized peptide corresponding to residues 112-140 of IGF2 (IGF2^112-140) (human) (UniProt P01344). Nature of the experiment: pull-down; IGF2 112-140 peptides covalently linked to thiopyridone sepharose 6B, incubated with purified GST or GST-TMED10 (1-130); bound proteins analysed by immunoblot; both purified. For orientation: Immunoblotting shows a protein as a band on a membrane.

These are yes or no findings as the source states them, for the method shown. For part of these data: Binding seen in cells or lysates may run through a third protein. Some entries that bind do so weakly or less than the wild type. Tags and fused reporters may be left off the sequences shown.

Consider “HA-tagged IGF2 (IGF2-HA) (from UniProt P01344 25-180)”, for which the binding entry in experiment [1] and in experiment [2] was “binds” throughout.

B1: GST-tagged human TMED10 GOLD domain (residues 1-130) (domain or fragment, UniProt P49755 32-130)
chain: ISFHLPINSRKCLREEIHKDLLVTGAYEISDQSGGAGGLRSHLKITDSAGHILYSKEDATKGKFAFTTEDYDMFEVCFESKGTGRIPDQLVILDMKHGV
On to B1, for which, in experiment [3], the binding entry is “binds”.

The values above are taken from publication PMC10655563.
